In patent US20070060548A1, “Modulation of Epac, phospholipase Cepsilon, and phospholipase D to treat pain” (The Regents of the University of California, priority 2005, published 2007):
For at least one compound, name, drawing or mass did not settle the structure.

System: PKCε translocation in cultured DRG neurons
Assay: PKCε translocation to the plasma membrane in cultured DRG neurons (immunocytochemistry, 50 cells per culture counted)
Assay type: cell-based, rat
Details: activator alone, time course
Description: Cultures of dissociated dorsal root ganglia were prepared from male Sprague-Dawley rats (200-300 g, Charles River, Hollister, Calif., USA), adapting a previously described protocol (Khasar et al., 1999b). Rats were anesthetized with an overdose of Nembutal (50 mg per animal, s.c.). L1-L6 DRGs were removed, desheathed, pooled, incubated with collagenase (final concentration (f.c.) 0.125%, 1 h, 37° C.) followed by a trypsin digest (f.c. 0.25%, 7 min, 37° C.). Cells were separated by trituration with a fire polished Pasteur pipette. Axon stumps and dead cells were removed by straining (40 μm mesh), followed by centrifugation (3 min, 500 g). Cells were resuspended in 12 ml Neurobasal A/B27-media and plated 0.5 ml (=0.5 DRG equivalents) per culture onto polyornithine/laminin precoated glass cover slips (12 mm diameter) and incubated over night in 24-well plates at 37° C. in 5% CO2. […]
Cells were evaluated with a Nikon Microphot FXA microscope, using a 50× oil objective. 50 randomly selected cells per culture were evaluated. Data are plotted as mean percentage of translocating cells per evaluated culture±standard error of means (SEM) based on the number of evaluated cultures. […]

C=C[C@@]1(C)CC(=O)[C@]2(O)[C@@]3(C)[C@@H](O)CCC(C)(C)[C@@H]3[C@H](O)[C@H](OC(C)=O)[C@@]2(C)O1 [forskolin]
time of maximal PKCε translocation: 30 s
